The results in this text go back to patent US20120321619A1.

Chains of the proteins cited; added tags and fusions are not shown. Residues count along the entry.
UniProt Q91YK8, residues 33-343: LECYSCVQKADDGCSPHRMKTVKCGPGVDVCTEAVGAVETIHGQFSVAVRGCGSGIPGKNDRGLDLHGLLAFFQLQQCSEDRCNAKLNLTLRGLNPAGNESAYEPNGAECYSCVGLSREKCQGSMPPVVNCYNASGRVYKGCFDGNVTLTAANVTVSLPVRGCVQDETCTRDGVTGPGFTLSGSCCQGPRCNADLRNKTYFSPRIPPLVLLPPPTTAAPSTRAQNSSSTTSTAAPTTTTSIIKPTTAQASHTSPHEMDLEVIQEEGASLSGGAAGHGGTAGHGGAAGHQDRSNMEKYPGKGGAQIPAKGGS

No constants are given. Whether binding was seen depends on the method and setting. Some binding calls cover weakened binding; strength is not graded here. For some assays here: Tags and fused reporters may be left off the sequences shown.

Test [1] concerns the target T1, hC4.4a domain S1-Fc-his6 (human) (UniProt O95274).
T1 sequence (chain (part 1 of 2)): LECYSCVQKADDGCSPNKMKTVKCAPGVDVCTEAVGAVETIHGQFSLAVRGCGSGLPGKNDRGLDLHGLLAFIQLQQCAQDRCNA
T1 sequence (chain (part 2 of 2)): HHHHHH
Nature of the test: western blot, non-reduced samples.

Test [2] addresses recombinant soluble murine C4.4a (mouse) (UniProt Q91YK8). Description: western blot, non-reduced samples. On the technique in general: Immunoblotting shows a protein as a band on a membrane.

B1: M31-B01 (antibody, human IgG1, V domains shown)
VH: EVQLLESGGGLVQPGGSLRLSCAASGFTFSNAWMSWVRQAPGKGLEWVSYISSSGSTIYYADSVKGRFTISRDNSKNTLYLQMNSLRAEDTAVYYCAREGLWAFDYWGQGTLVTVTS
VL: QSVLTQPPSASGTPGQRVTISCTGSSSNIGAGYVVHWYQQLPGTAPKLLIYDNNKRPSGVPDRFSGSKSGTSASLAISGLRSEDEADYYCAAWDDRLNGPVFGGGTKLTVLG
Consider B1, for which the binding result in test [1] and in test [2] was “binds” throughout.
